These results are taken from patent US20050123936A1 (priority 2003, published 2005).

The data set concerns the target T1, Extradenticle (Exd), homeodomain plus extended fourth helix (Drosophila) (UniProt P40427).
T1 sequence (looked up): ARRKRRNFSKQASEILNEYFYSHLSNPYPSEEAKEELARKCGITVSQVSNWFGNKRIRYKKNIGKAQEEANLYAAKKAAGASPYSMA
Description: EMSA. The note with it: purified recombinant protein, label: 5'-32P both strands. (In EMSA bound probe runs differently from free probe, usually more slowly.)

No signal at the amounts used counts as a negative. Tags and fusion partners may be left off the protein sequences shown. The comparison behind a weaker result is the experiment's own reference, which may not be listed here.

In the case of “GATCTCCCGGCGAATGATTGACCATATCGGCGCCACTGTCACCCGGA (double strand) [Optimal EMSA duplex (FIG. 2a), 47 bp]”, the binding result (Exd alone at 1 uM, multiple Exd molecules bind nonspecifically, compound 2 improves affinity at least ~200-fold) is recorded as “binds more weakly”; the binding result (with 50 nM compound 3 (mutant peptide YPAA), up to 100 nM Exd, 4 C) is “no binding”; the binding result (with 50 nM polyamide 1 (no peptide), up to 100 nM Exd, 4 C) is “no binding”.
